The other results are listed elsewhere or left out. These are further read-outs of the screen, such as a control signal, another cell line or another target. No call is given for them. Compounds called inactive in the main read-out are mostly missing here. For part of these data: Words in brackets tell the shape of the fitted curve; partial curves, single points and poor fits give uncertain potencies.

A short description of assay [1]: Validation of Assay for Modulators of Lamin A Splicing (AID 1459). The conditions noted are these: Lamin A splicing dual RFP/GFP fluorescence reporter, ratio. The method, boiled down: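 Splicing correction read as GFP (500-530 nm) over DsRed2 (575-640 nm) object intensity after 48 h compound exposure of reporter HeLa S3 clones (600 cells/well, 2% FBS medium); ancitabine and cycloheximide titrations, 0.5% DMSO as vehicle.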

Assay [2] is described as follows: qHTS Assay for Lipid Storage Modulators (AID 1519). The following applies: Drosophila S3 cells, BODIPY lipid droplet/cell ratio, laser cytometry, cells loaded with oleic acid. In outline: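 Cells seeded at 5,000 per well were treated with compounds over a concentration series and loaded with oleic acid (400 uM, as added). Lipid droplet fluorescence (488 nm excitation, 500-530 nm channel) was read by laser-scanning cytometry and normalized to 20 uM Triacsin C.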

The nature of assay [3]: qHTS Validation Assay to Find Inhibitors of Chronic Active B-Cell Receptor Signaling (AID 485345). The conditions noted are these: ABC-DLBCL cells, chronic BCR signaling reporter. In outline: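 TMD8 ABC-DLBCL cells stably carrying doxycycline-inducible IkappaBalpha–green luciferase fusion plus unfused red luciferase; compounds 46 uM to 3 nM, 4 h at 37C with doxycycline. Corrected green/red luminescence ratio normalized to 10 uM MG-132 and basal cell wells; curves fitted.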

Assay [4] can be described thus: Nrf2 qHTS screen for inhibitors: Validation (AID 493153). The conditions noted are these: A549 ARE-Fluc reporter, 18-24 h; AC50: CellTiter-Fluor fluorescence read, measured here: cytotoxicity CellTiter-Fluor AC50; viability change: measured here: cytotoxicity max response. The method, boiled down: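 A549 cells carrying ARE-firefly luciferase reporter, 5000 cells/well in 5% FBS OPTI-MEM, treated with compound over a concentration series for 18-24 h at 37 C. Luciferase luminescence gave Nrf2 activity; CellTiter-Fluor fluorescence gave viability.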
On the technique in general: qHTS replaces the single test concentration by a dilution series.

A short description of assay [5]: qHTS Assay for Modulators of Human Peripheral Myelin Protein 22 (PMP22) Expression/Activity (AID 1967). The conditions noted are these: Cell-based PMP22 reporter, dual-color luciferase ratio. In outline: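 Readout is the corrected green/red luminescence ratio after 24 h compound exposure, normalised to untreated cells (0%). Engineered MSC80 mouse Schwann cells express green luciferase from the mouse Pmp22 promoter and red luciferase from EF-alpha as internal control.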

A short description of assay [6]: qHTS for identification of novel therapeutic agents for treatment of microphthalmiaassociated transcription factor (MiT) renal cell carcinoma (RCC) (AID 1963991). The conditions noted are these: CellTiter-Glo, 48 h; for z-score: stronger effect = lower value. The method, boiled down:
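Viability of three TFE3-fusion renal carcinoma lines measured by CellTiter-Glo after 48 h treatment with each of 1912 compounds at 11 concentrations. Responses scaled between DMSO (100%) and empty wells (0%) before curve fitting.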

[7] abbreviates: measured here: red reporter channel AC50, EF-alpha promoter control reporter in MSC80 mouse Schwann cells.
Where [8] appears, read: measured here: green reporter channel AC50, mouse Pmp22 promoter in mouse Schwann cells.
Setting [9] is: TFE3-RCC viability, measured here: UOK124 cell viability.
The mark [10] stands for this setting: TFE3-RCC viability, measured here: UOK145 cell viability.

Consider `O=C1O/C(=C/Br)CCC1c1cccc2ccccc12` (configuration not stated), for which the AC50 (commonly the concentration at which the activity in the assay is half-maximal) in assay [1] (measured here: GFP channel) is 3.55 µM [falling, full curve]; in assay [1] (measured here: RFP channel), 4.47 µM [falling, full curve]; in assay [3] (measured here: CBG/CBR ratio read-out) it was 10.3 µM [falling, partial curve]; in assay [3] (measured here: CBR control luciferase (viability counter)), 18.4 µM [falling, single point]. The max response in assay [2] (measured here: cell count channel max response) was 33%; in assay [2] (measured here: lipid channel max response), 13%. Further, the viability change in assay [4] is -14.1%.
In the case of `C[N+]1(CCCCC[N+]2(C)CCCC2)CCCC1`, the AC50 in assay [1] (measured here: GFP channel) was 35.5 µM [falling, single point]; in assay [1] (measured here: RFP channel) it was 35.5 µM [falling, single point]; in assay [5] (setting [7]), 16.9 µM [rising, single point].
As to `COc1cc2nc(N3CCN(C(=O)c4ccco4)CC3)nc(N)c2cc1OC`, the half-maximal activity concentration (AC50) in assay [1] (measured here: GFP channel) is 35.5 µM [falling, single point]; in assay [1] (measured here: RFP channel) it was 35.5 µM [falling, single point]; in assay [5] (setting [8]), 26.9 µM [falling, full curve]; in assay [5] (setting [7]) it was 23.9 µM [falling, full curve]; in assay [6] (setting [9]), 18.7 µM [falling, partial curve]; in assay [6] (setting [10]), 26.4 µM [falling, single point]. Moreover, the z-score was 0.156 in assay [6] (TFE3-RCC UOK109 viability, measured here: UOK109 Z-AUC); -0.264 in assay [6] (TFE3-RCC viability, measured here: UOK124 Z-AUC); 0.0389 in assay [6] (TFE3-RCC viability, measured here: UOK145 Z-AUC).
Regarding `CC(=O)O[C@H]1C(=O)[C@@]2(C)C([C@H](OC(=O)c3ccccc3)[C@]3(O)C[C@H](OC(=O)[C@H](O)[C@@H](NC(=O)c4ccccc4)c4ccccc4)C(C)=C1C3(C)C)[C@]1(OC(C)=O)CO[C@@H]1C[C@@H]2O` (some centres not stated), the half-maximal activity concentration (AC50) in assay [1] (measured here: GFP channel) was 3.98 µM [falling, full curve, poor fit]; in assay [1] (measured here: RFP channel) it was 0.0355 µM [falling, full curve]; in assay [5] (setting [8]), 0.0675 µM [falling, full curve, poor fit]; in assay [5] (setting [7]), 0.0478 µM [falling, full curve]; in assay [4], 2.31 µM [falling, partial curve]; in assay [6] (setting [9]) it was 0.00833 µM [falling, full curve]. For the same compound, the concentration at half-maximal activity (AC50) in assay [6] (setting [10]) is 0.0187 µM [falling, full curve]. Further, in assay [4], the viability change was -35.4%.

The record behind these values is PubChem BioAssay (NCATS).
